The values are deposited in ChEMBL (CHEMBL3988442, “University of Dundee, Small-Polar-MMV Screening Library” (2021)).

Sequences of proteins named here, by UniProt entry; tags and fusion partners are left off. Residues count along the entry.
UniProt P9WPC5, whole entry: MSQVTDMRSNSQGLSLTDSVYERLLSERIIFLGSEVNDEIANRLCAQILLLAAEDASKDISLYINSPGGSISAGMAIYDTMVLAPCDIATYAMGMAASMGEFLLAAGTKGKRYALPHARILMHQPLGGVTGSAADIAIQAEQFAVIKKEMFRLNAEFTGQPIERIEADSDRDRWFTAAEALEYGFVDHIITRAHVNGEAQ
UniProt P9WPC3, whole entry partner: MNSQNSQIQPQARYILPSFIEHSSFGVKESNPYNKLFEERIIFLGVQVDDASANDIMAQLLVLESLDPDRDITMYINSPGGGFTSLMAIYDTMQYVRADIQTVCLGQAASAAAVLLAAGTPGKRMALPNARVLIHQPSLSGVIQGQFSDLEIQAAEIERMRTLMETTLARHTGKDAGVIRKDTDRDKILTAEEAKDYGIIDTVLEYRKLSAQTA
UniProt Q8IDJ8, 1-583: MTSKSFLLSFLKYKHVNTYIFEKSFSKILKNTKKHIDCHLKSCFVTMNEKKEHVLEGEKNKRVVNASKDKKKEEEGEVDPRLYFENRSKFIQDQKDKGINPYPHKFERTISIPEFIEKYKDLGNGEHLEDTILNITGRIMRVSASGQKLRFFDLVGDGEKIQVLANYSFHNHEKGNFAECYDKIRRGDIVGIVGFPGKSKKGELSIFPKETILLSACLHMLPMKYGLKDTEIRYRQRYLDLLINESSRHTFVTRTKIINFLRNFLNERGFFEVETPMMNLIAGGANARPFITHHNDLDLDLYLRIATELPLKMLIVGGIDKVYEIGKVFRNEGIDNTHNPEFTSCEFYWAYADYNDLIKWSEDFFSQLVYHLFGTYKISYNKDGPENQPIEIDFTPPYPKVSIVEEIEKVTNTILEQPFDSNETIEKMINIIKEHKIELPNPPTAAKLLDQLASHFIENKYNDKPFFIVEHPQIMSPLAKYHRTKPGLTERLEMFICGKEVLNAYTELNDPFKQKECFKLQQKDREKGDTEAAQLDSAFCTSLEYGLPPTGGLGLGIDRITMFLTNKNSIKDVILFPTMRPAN

Leishmania in macrophages: 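Cell assay of Leishmania donovani living inside macrophages; the read-out is not stated. Compounds at 30 µM. The record gives no direction; compounds that gave an IC50 in retests scored well above the rest, so higher reads as stronger inhibition. About 69,000 compounds were tested under these conditions; 1.5% (about 1,000) showed 50% or more at least once.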
ClpP1P2: 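ClpP1P2, Mycobacterium tuberculosis (UniProt P9WPC5 and UniProt P9WPC3). Protease assay of ClpP1P2, read by the AMC dye that it sets free. Concentration: 50 µM. Direction is inferred from only a few compounds that gave an IC50; most scored high, so higher reads as stronger inhibition. Most other retested compounds had strongly negative values. About 69,000 compounds were tested under these conditions; 0.015% (about 10) showed 50% or more at least once.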
Toxoplasma: 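Assay of Toxoplasma gondii numbers, read through their beta-galactosidase reporter with a colour substrate. Concentration: 10 µM. The record gives no direction; the compounds picked for IC50 retests had high values, so higher reads as fewer parasites. Of about 67,000 compounds tested this way, about 260 (0.38%) reached 50% or more in at least one test.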
PfKRS1: 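Lysine-tRNA ligase, Plasmodium falciparum 3D7 (UniProt Q8IDJ8). Enzyme assay of the cytosolic lysyl-tRNA synthetase in 384-well plates, read by luminescence. Tested at 30 µM. Direction is inferred from only a few compounds that gave an IC50; most scored high, so higher reads as stronger inhibition. Of about 69,000 compounds tested this way, about 49 (0.071%) reached 50% or more in at least one test.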

Each number is a percent effect as filed.
The record does not define 0% and 100%; most values in the screen are far below 50% and negative numbers occur (in some assays of this library far below -100).
This is an unselected part of the compounds tested.
Two or more numbers in one place are separate tests of the same structure; such repeats can differ widely.
A dash means the value is not listed here; it may have been measured.

structure,Leishmania in macrophages,ClpP1P2,Toxoplasma,PfKRS1
NCCc1cc(N2CCOCC2)nc(NC2CC2)n1,-,-4.151,-,4.574
CC(C)N1CCC(c2nccnc2Nc2ncccn2)CC1,14.1,-4.539,1.167,1.613
COc1ccc(C(=O)N2CC(c3ccncc3)C2)c(OC)c1OC,7.181,-13.87,-3.017,-2.765
CN(Cc1cn[nH]c1-c1ccc(F)cc1)C(=O)CCC1CC1,-4.143,-12.2,-5.086,-1.414
Cc1csc(CNC(=O)N(C)Cc2ccc3c(c2)OCO3)n1,13.78,-3.954,0.9265,12.65
CCn1cc(Cn2cc(-c3cccc(C(C)N(C)C)c3)nn2)cn1 (centres unmarked),16.01,-2.132,4.468,-0.3114
COc1ccc(CN2C[C@@H]3CC[C@H](C2)N(Cc2snnc2C)C3)cc1,-,4.73,-,2.304
COc1cccc(N2CC3(CCN(c4ccc(C)nn4)C3)CC2=O)c1 (centres unmarked),31.76 & 10.1,-0.4367,-2.032,4.684
O=C(c1ccccc1)C1CCN(Cc2cc3c(cc2O)CCC3)CC1,-12.1,12.23,-0.0778,-3.097
CC(=O)N1CCCC(c2ccc(N3CCOCC3)cn2)C1 (centres unmarked),1.022,0.8291,15.25,1.575
O=C(CC1COCCN1C(=O)c1cscn1)c1ccccc1 (centres unmarked),28.43,-12.52,3.422,1.053
CC(C)(CNc1c(C#N)cnc2ccc(Cl)cc12)C(N)=O,0.02739,2.497,6.77,3.176
NC(=O)CN(Cc1ncc(-c2ccc(F)cc2)o1)C1CCCC1,-15.91,-2.539,7.917,3.735
[H][C@@]12CCN(Cc3ccco3)[C@]1([H])CC[C@@H](C(=O)NCc1cnc(C)cn1)O2,5.018,-,0.4219,-
Cc1cc(C2CCCN2C(=O)CN(C)Cc2ccccc2)no1 (centres unmarked),38.35,-18,-0.1985,-0.4412
CNC(=O)COc1cccc(CNC(=O)c2c(C)noc2C(C)C)c1,7.057,-5.6,-4.383,-0.869
COCCN1CCC2(CC1)CN(Cc1cccc(C)n1)C(=O)CO2,-1.754,-6.8,20.87,0.6251
CCC1CCCCN1C(=O)Cn1nc(-c2cc(C)oc2C)cc(N)c1=O (centres unmarked),23.95,-14.31,17.81,-0.9481
CCn1cc(CN2CCCN(C(=O)c3ccc(C)o3)CC2)cn1,-14.15,-47.7,-5.253,0.06773
Cc1nc(C)n(CC2CCCN2c2ncnc3ccsc23)n1 (centres unmarked),-18.44,1.079,-13.09,-1.722
Cl.Cl.OC(CN1CCN(Cc2cccc(F)c2)CC1)C1CC1 (centres unmarked),30.52,-,6.018,-
Cc1nn(C)c2ncc(S(=O)(=O)N3CCCN4CCCC4C3)cc12 (centres unmarked),14.48,-9.708,7.988,-3.337
CN1CCN(C2CCN(Cc3noc(C(C)(C)C)n3)CC2)C1=O,-16,-1.43,-3.404,4.1
CCc1noc(CCC(=O)N[C@@H]2CC[C@@H](n3ccnc3C)[C@@H]2O)n1,24.31,11.28,15.36,1.656
CC(C)c1cc(C2CCCN2C(=O)c2cn3ccsc3n2)no1 (centres unmarked),0.9603,-13.31,8.369,4.082
CN(Cc1ccc(Br)s1)Cn1nc(-c2ccc(F)cc2)oc1=O,19.77,7.881,3.721,4.705
COc1ccc(-c2ccnc(C3CCNCC3)c2)cc1.Cl,16.12 & 13.48,-,10.8,-
Cc1cnc(C(=O)N(C)[C@@H]2CCC[C@@H](Oc3ccccc3)[C@@H]2O)cn1,10.55 & 1.393,0.9157,-19.42,-2.465
CCOCC(=O)NCCc1ccc(I)s1,19.03,16.7,-3.121,-3.633
Cc1cc(CNC(=O)N(Cc2ccc(F)cc2F)C2CC2)no1,2.462,-23.01,-1.436,-0.87
Cn1cc(C2CCCN2Cc2csc(Cc3ccccc3)n2)cn1 (centres unmarked),19.41,-16.62,0.1893,0.8024
COCCN1CCC2(CCC1=O)CN(c1ccnc(SC)n1)CCN2C (centres unmarked),-10.18,-3.13,0.2758,3.604
CC1COc2ccccc2N1C(=O)c1ccnc(-n2cncn2)c1 (centres unmarked),16.48,-11.12,-2.481,0.9897
Cc1nc(CC(C)C)cc(C(=O)N2C[C@@H](N(C)C)[C@H](C(C)C)C2)n1,15.88,-1.259,-2.431,0.8777
CSc1ccc(CNC(=O)NCC(O)c2cccc(F)c2)cc1 (centres unmarked),11.33,-4.007,-10.35,-1.13

2 of the entries, repeated:

- [H][C@@]12CCN(Cc3ccco3)[C@]1([H])CC[C@@H](C(=O)NCc1cnc(C)cn1)O2 | Leishmania in macrophages: 5.018%; Toxoplasma: 0.4219%
- Cc1cnc(C(=O)N(C)[C@@H]2CCC[C@@H](Oc3ccccc3)[C@@H]2O)cn1 | Leishmania in macrophages: 10.55% & 1.393%; ClpP1P2: 0.9157%; Toxoplasma: -19.42%; PfKRS1: -2.465%